{
  "source": "patent US20160320413A1",
  "about": "(D GEN, published 2016)",
  "target": "abnormal human PrP (disease associated PrP, including PrPSc) from vCJD brain homogenate, blood or ur (human) (UniProt P04156)",
  "experiment": "Immunodetection on steel powder, chemiluminescence, FIG. 1",
  "note": "No constants are given. Whether binding was seen depends on the method and setting. Some results given as binding are weak or reduced against the parent protein; the word gives no strength.",
  "data": [
    {"binder": "ICSM18 anti-PrP antibody (D-Gen Ltd, product code 0130-01810), biotinylated (antibody, V domains shown) VH: EVQLQQSGPELVKPGSSVKISCKASRNTFTDYNLDWVKQSHGKTLEWIGNVYPNNGVTGYNQKFRGKATLTVDKSSSTAYMELHSLTSEDSAVYYCALYYYDVSYWGQGTLVTVSA VL: QIVLTQSPAIMSASPGEKVTMTCSASSSVSYMHWYQQKSGTSPKRWIYDTSKLASGVPARFSGSGSGTSYSLTISSMEAEDAATYFCHQWRSNPYTFGGGTKLEIKR", "values": [
      {"measurement": "binding", "result": "binds"}
    ]}
  ]
}
